According to patent publication US20210371529A1:
Results are given in words; binding and its absence hold for the method and conditions named. Some entries that bind do so weakly or less than the wild type.

Amino acid sequences for entries named in this document (tags omitted). Residues count along the entry.
UniProt Q61790, residues 24-521: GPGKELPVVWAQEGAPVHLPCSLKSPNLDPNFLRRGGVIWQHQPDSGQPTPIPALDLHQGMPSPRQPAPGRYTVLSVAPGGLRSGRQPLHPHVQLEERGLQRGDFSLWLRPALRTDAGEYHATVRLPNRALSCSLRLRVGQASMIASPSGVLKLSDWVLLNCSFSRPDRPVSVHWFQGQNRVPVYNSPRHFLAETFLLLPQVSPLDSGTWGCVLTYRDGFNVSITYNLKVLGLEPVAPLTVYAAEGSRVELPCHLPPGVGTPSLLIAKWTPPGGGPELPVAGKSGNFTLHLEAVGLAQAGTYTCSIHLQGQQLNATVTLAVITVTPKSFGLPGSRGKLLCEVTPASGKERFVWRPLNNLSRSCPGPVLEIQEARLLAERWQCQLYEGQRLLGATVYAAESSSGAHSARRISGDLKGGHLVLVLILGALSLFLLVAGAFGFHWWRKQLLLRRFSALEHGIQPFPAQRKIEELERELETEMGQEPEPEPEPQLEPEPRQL

Legend:
[1] = target: mouse LAG-3 overexpressed on CHO cells (mouse) (UniProt Q61790); assay: flow cytometry (MFI) on CHO cells overexpressing mouse LAG-3, PE goat anti-human IgG
[2] = target: mouse LAG-3 overexpressed on CHO cells (mouse) (UniProt Q61790); assay: flow cytometry on CHO-mLAG-3 cells

- binding [1]: binds
- binding [2]: binds
B1: ADI-31851 (antibody, human IgG4 S228P, kappa, F234A L235A, V domains shown)
VH: QLQLQESGPGLVKPSETLSLTCTVSGGSISSPDYYWGWIRQPPGKGLEWIGSIVYSGYTYYNPSLKSRVTISVDTSKNQFSLKLSSVTAADTAVYYCARVRTWDQSFDIWGQGTMVTVSS
VL: DIQMTQSPSSLSASVGDRVTITCQAGQDISNYLNWYQQKPGKAPKLLIYDASNLETGVPSRFSGSGSGTDFTFTISSLQPEDIATYYCQQVLELPPWTFGGGTKVEIKR
